# In patent US20250255815A1, “NUCLEIC ACIDS ENCODING A CONSTITUTIVELY-ACTIVE CYCLIC GMP-AMP SYNTHASE AND IMMUNOGENIC DELIVERY VEHICLES FOR SAME” (Corner Therapeutics, Inc., priority 2022, published 2025):
# At least one structure is not confirmed: it was looked up by name or label, or the drawing left a doubt.
# Test system: human PBMCs
# Test: IL-1β secretion by human PBMCs (ELISA or Lumit)
# Format: cell-based
# Settings: two days in culture
# Method: Isolation of PBMCs from Whole Blood. PBMCs were isolated from whole blood using density gradient centrifugation with Ficoll-Paque PLUS (Cytivia). Whole blood was diluted 1:1 with PBS, layered on top of Ficoll-Paque PLUS and centrifuged at 1000×g for 30 minutes at room temperature. PBMCs were collected, washed twice in PBS, and incubated with Ack lysis buffer (Lonza) to remove any remaining red blood cells.
# Cell Culture and Stimulation. Immediately following isolation, PBMCs were plated in RPMI medium containing 10% FBS, 50 units/mL penicillin, […] streptomycin, 2 mM L-glutamine, 1 mM sodium pyruvate, and […] beta-mercaptoethanol (R10 media). […]
# Endpoint Analyses. […] Half of the media volume in the wells was collected for cytokine quantification by Enzyme-Linked Immunosorbent Assay (ELISA) or Lumit™ Bioluminescent assay, while the remaining media and cells were used to quantify cell viability by assessing metabolic activity.
# Quantification of Cytokine Secretion. IL-1β secretion from human PBMCs was assessed using one of the following kits: ELISA MAX Deluxe Set Human IL-1β kit (Biolegend), Invitrogen Human IL-1β kit, or the Lumit™ Human IL-1β Immunoassay (Promega). IFNγ secretion from human PBMCs was assessed using the ELISA MAX Deluxe Set Human IFNγ (Biolegend) and TNFα secretion from human PBMCs was assessed using the Human TNFα Uncoated ELISA kit (Invitrogen). […]
compound,measurement,value
"CCOCc1nc2c(N)nc3ccccc3c2n1CC(C)(C)O [R848, resiquimod]",IL-1β secretion,secreted IL-1β in response to R848 alone
